These are yes or no findings as the source states them, for the method shown. In cells and extracts the contact can be indirect. A yes stands for co-enrichment or nearness to the bait. Other partners may have been found.
B1: MATR3 (protein, UniProt P43243 1-847)
chain: MSKSFQQSSLSRDSQGHGRDLSAAGIGLLAAATQSLSMPASLGRMNQGTARLASLMNLGMSSSLNQQGAHSALSSASTSSHNLQSIFNIGSRGPLPLSSQHRGDADQASNILASFGLSARDLDELSRYPEDKITPENLPQILLQLKRRRTEEGPTLSYGRDGRSATREPPYRVPRDDWEEKRHFRRDSFDDRGPSLNPVLDYDHGSRSQESGYYDRMDYEDDRLRDGERCRDDSFFGETSHNYHKFDSEYERMGRGPGPLQERSLFEKKRGAPPSSNIEDFHGLLPKGYPHLCSICDLPVHSNKEWSQHINGASHSRRCQLLLEIYPEWNPDNDTGHTMGDPFMLQQSTNPAPGILGPPPPSFHLGGPAVGPRGNLGAGNGNLQGPRHMQKGRVETSRVVHIMDFQRGKNLRYQLLQLVEPFGVISNHLILNKINEAFIEMATTEDAQAAVDYYTTTPALVFGKPVRVHLSQKYKRIKKPEGKPDQKFDQKQELGRVIHLSNLPHSGYSDSAVLKLAEPYGKIKNYILMRMKSQAFIEMETREDAMAMVDHCLKKALWFQGRCVKVDLSEKYKKLVLRIPNRGIDLLKKDKSRKRSYSPDGKESPSDKKSKTDGSQKTESSTEGKEQEEKSGEDGEKDTKDDQTEQEPNMLLESEDELLVDEEEAAALLESGSSVGDETDLANLGDVASDGKKEPSDKAVKKDGSASAAAKKKLKKVDKIEELDQENEAALENGIKNEENTEPGAESSENADDPNKDTSENADGQSDENKDDYTIPDEYRIGPYQPNVPVGIDYVIPKTGFYCKLCSLFYTNEEVAKNTHCSSLPHYQKLKKFLNKLAEERRQKKET

By UniProt entry, the sequences of proteins in these tests, tags left out.
UniProt Q9UH17: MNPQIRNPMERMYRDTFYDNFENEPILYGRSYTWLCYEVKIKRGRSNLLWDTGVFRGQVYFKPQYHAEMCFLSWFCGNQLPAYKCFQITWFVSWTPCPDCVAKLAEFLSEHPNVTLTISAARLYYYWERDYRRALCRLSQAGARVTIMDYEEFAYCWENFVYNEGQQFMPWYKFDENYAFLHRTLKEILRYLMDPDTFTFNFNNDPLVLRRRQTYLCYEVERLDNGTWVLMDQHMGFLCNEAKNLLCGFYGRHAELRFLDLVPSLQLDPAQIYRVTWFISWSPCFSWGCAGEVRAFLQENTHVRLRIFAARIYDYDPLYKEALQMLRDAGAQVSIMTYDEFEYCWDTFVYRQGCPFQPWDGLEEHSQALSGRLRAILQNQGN
UniProt O00571: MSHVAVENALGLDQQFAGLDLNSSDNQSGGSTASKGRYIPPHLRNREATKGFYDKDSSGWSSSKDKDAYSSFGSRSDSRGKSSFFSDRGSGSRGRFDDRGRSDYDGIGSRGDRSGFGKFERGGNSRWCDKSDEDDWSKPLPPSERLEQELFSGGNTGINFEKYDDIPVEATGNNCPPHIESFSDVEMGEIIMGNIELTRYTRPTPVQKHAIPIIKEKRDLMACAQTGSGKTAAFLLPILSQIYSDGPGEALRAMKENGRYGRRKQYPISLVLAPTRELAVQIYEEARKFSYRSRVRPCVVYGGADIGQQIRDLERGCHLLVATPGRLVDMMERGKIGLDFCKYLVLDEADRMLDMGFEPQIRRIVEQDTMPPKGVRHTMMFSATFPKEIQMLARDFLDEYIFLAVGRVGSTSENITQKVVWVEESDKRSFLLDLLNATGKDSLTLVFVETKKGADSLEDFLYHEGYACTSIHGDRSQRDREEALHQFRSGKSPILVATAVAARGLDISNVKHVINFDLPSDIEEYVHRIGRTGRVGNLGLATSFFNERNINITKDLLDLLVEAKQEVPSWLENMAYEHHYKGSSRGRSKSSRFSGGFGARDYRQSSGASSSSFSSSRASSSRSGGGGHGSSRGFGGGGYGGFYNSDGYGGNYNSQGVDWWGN
UniProt P11940: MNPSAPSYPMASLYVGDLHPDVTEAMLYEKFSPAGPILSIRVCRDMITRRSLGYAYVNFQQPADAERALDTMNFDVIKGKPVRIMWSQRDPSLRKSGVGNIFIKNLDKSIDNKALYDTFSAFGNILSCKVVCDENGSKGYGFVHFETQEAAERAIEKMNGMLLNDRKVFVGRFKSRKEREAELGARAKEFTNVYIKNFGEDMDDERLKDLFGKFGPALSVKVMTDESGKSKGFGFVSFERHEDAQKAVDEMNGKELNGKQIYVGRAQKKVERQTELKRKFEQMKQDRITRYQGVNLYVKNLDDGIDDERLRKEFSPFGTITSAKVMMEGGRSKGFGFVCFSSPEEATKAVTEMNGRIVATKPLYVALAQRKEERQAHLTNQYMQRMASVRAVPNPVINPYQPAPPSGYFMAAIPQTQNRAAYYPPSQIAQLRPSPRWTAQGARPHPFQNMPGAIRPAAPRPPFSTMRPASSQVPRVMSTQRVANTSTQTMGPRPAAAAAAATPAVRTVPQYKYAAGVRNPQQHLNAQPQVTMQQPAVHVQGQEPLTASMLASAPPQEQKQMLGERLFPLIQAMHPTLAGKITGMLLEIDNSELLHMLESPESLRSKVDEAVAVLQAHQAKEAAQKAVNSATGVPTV

Target: APOBEC3B-GFP/Flag (human) (UniProt Q9UH17)
Experiment: affinity purification with mass spectrometry; HEK-293T transfected with the bait; lysate treated with RNase A and Benzonase; anti-Flag M2 gel, elution with 3X-Flag peptide, then GFP-Trap beads; washes with 250 mM NaCl; SDS-PAGE bands analysed by LC-MS/MS

binding, binds:
DDX3 (from UniProt O00571 1-662)
PABPC1 (from UniProt P11940 1-636)
B1

From publication PMC9925369
